The record followed here is PMC4434903.

These are yes or no findings as the source states them, for the method shown. For part of these data: In cells and extracts the contact can be indirect. Some entries that bind do so weakly or less than the wild type. Tags and fused reporters may be left off the sequences shown.

The target of assay [1] is full length TOP2-His (UniProt Q949P2). Put plainly: SEC; Superdex 200 gel filtration of cobalt-column purified His-tagged protein after incubation with 500 uM DTT overnight; both purified.
The target in assay [2] is T1, TOP2 fused to the N-terminal or the C-terminal half of Renilla luciferase (UniProt Q949P2).
T1 sequence: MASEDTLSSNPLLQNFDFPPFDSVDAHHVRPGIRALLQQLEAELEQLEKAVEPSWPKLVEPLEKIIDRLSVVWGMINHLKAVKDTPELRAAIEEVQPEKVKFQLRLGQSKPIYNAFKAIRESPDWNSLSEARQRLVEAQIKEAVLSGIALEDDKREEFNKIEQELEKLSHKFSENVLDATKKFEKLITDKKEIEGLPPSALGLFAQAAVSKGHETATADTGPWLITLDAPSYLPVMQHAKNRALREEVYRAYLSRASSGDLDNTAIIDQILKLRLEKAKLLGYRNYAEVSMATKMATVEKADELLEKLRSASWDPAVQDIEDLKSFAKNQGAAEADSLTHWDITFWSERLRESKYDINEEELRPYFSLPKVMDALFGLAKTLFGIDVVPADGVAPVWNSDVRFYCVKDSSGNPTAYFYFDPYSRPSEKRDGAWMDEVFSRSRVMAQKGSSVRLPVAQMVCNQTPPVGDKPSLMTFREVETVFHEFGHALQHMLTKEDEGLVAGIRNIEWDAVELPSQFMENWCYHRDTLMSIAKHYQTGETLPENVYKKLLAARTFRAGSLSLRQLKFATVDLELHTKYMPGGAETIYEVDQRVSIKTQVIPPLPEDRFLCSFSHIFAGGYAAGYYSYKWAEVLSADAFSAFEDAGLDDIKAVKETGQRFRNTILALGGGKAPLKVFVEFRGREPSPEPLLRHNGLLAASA
Put plainly: split reporter; split Renilla luciferase complementation in Arabidopsis protoplasts co-transformed with NLuc and CLuc fusions; luminescence read 12-16 h after transformation; with or without 100 or 200 uM SA (3 h).

Assay [3] concerns the target TOP1 fused to the N-terminal or the C-terminal half of Renilla luciferase (UniProt Q94AM1). The assay is described as above.

B1: full length TOP2-His (enzyme, UniProt Q949P2 1-701)
chain: T1 sequence
With B1, the binding entry in assay [1] is given as “binds weakly”.

B2: TOP1 fused to the N-terminal or the C-terminal half of Renilla luciferase (enzyme, UniProt Q94AM1 83-791)
chain: AAAVESVVSDETLSSNPLLQDFDFPPFDSVDASHVRPGIRALLQHLEAELEELEKSVEPTWPKLVEPLEKIVDRLTVVWGMINHLKAVKDTPELRAAIEDVQPEKVKFQLRLGQSKPIYNAFKAIRESPDWSSLSEARQRLVEAQIKEAVLIGIALDDEKREEFNKIEQELEKLSHKFSENVLDATKKFEKLITDKKEIEGLPPSALGLFAQAAVSKGHENATAENGPWIITLDAPSYLPVMQHAKNRALREEVYRAYLSRASSGDLDNTAIIDQILKLRLEKAKLLGYNNYAEVSMAMKMATVEKAAELLEKLRSASWDAAVQDMEDLKSFAKNQGAAESDSMTHWDTTFWSERLRESKYDINEEELRPYFSLPKVMDGLFSLAKTLFGIDIEPADGLAPVWNNDVRFYRVKDSSGNPIAYFYFDPYSRPSEKRGGAWMDEVVSRSRVMAQKGSSVRLPVAHMVCNQTPPVGDKPSLMTFREVETVFHEFGHALQHMLTKQDEGLVAGIRNIEWDAVELPSQFMENWCYHRDTLMSIAKHYETGETLPEEVYKKLLAARTFRAGSFSLRQLKFASVDLELHTKYVPGGPESIYDVDQRVSVKTQVIPPLPEDRFLCSFSHIFAGGYAAGYYSYKWAEVLSADAFSAFEDAGLDDIKAVKETGQRFRNTILALGGGKAPLKVFVEFRGREPSPEPLLRHNGLLAASASA
In the case of B2, the binding result in assay [2] and in assay [3] was “binds” throughout.
